These are yes or no findings as the source states them, for the method shown. Some results given as binding are weak or reduced against the parent protein; the word gives no strength. For part of these data: Tags and fused reporters may be left off the sequences shown.
How the values were obtained:
[1] = molecular target: 22-25-kDa conformers of the native human α3(IV)NC1 domain (human) (UniProt Q01955); test: far-Western
[2] = molecular target: 22-25-kDa conformers of the native human α3(IV)NC1 domain (human) (UniProt Q01955); test: far-Western (fα3 binding)
[3] = molecular target: α3(IV)NC1 domain of GP patient kidneys (human) (UniProt Q01955); test: far-Western, α-FLAG detection
[4] = molecular target: 22-25-kDa conformers of the native human α3(IV)NC1 domain (human) (UniProt Q01955); test: far-Western on in-blot renatured human monomers, α-FLAG detection
[5] = molecular target: 22-25-kDa conformers of the native human α3(IV)NC1 domain (human) (UniProt Q01955); test: far-Western on in-blot renatured human monomers, 30 ng/µl fα3, α-FLAG detection
[6] = molecular target: 22-25-kDa conformers of the native human α3(IV)NC1 domain (human) (UniProt Q01955); test: disulfide-based oligomerization assay, non-oligomerized fα3 detected with α-FLAG
[7] = molecular target: 27-kDa conformer of the native human α3(IV)NC1 domain (human) (UniProt Q01955); test: as above
[8] = molecular target: Human recombinant GP antigen (rGP) produced in 293 cells (human) (UniProt Q01955); test: filter overlay
[9] = molecular target: Human recombinant GP antigen (rGP) produced in 293 cells (human) (UniProt Q01955); test: told again of Example 1 (filter overlay with the HeLa1 fusion protein)

By UniProt entry, the sequences of proteins in these tests, tags left out. Where a name states a change or a piece, a line headed by the entry shows the natural chain unless it says otherwise.
UniProt Q01955: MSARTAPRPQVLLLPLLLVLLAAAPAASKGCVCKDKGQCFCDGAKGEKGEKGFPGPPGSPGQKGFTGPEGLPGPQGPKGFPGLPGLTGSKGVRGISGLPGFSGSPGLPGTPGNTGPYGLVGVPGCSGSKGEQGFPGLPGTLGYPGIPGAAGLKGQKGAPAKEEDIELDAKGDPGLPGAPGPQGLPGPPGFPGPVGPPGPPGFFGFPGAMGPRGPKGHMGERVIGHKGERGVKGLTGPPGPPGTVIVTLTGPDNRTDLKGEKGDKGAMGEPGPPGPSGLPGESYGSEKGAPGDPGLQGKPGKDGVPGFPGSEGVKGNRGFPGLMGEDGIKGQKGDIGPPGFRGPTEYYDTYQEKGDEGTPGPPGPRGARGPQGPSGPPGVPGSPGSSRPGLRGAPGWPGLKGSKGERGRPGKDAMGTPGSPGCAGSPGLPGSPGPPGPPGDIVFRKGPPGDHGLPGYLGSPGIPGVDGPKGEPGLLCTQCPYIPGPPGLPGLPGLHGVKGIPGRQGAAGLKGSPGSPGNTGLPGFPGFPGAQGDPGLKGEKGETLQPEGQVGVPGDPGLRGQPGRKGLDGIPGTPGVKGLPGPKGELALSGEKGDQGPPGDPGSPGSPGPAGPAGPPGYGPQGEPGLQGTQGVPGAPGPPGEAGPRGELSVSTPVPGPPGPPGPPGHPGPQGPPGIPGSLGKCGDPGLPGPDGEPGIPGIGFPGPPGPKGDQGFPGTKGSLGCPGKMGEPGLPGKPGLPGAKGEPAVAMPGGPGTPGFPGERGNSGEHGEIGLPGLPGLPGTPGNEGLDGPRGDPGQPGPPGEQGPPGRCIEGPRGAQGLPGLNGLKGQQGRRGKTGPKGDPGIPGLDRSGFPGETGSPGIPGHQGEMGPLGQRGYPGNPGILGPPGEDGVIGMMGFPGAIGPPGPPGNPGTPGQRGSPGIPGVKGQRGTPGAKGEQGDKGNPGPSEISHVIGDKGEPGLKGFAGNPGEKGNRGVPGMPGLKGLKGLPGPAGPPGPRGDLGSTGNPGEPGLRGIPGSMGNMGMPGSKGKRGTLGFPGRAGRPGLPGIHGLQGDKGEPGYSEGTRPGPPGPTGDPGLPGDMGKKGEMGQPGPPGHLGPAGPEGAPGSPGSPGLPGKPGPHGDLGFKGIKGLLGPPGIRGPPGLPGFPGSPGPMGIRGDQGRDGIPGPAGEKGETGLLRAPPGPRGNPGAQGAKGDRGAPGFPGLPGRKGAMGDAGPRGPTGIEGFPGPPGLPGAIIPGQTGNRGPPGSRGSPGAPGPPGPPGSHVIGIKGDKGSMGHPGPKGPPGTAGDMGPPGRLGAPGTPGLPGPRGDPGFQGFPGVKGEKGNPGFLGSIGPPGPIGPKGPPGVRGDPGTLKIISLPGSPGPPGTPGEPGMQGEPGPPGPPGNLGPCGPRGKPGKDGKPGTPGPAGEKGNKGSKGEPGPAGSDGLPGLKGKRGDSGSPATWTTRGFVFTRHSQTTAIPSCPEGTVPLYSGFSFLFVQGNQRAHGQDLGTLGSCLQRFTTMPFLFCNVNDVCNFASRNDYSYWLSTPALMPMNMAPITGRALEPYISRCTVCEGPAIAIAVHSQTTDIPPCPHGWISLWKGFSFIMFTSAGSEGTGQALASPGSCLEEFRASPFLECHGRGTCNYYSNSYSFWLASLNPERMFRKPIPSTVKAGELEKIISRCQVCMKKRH

Measured: binding

recombinant FLAG-tagged human α3(IV)NC1 (fα3) (from UniProt Q01955 1427-1670)
not listed: [8] | [9]
binds: all other assays above

B1: β-galactosidase-derived fusion protein of clone HeLa1 containing the N-terminal 150 residues of GPBP (protein, not shown: large carriers)
chain: MSDNQSWNSSGSEEDPETESGPPVERCGVLSKWTNYIHGWQDRWVVLKNNALSYYKSEDETEYGCRGSICLSKAVITPHDFDECRFDISVNDSVWYLRAQDPDHRQQWIDAIEQHKTESGYGSESSLRRHGSMVSLVSGASGYSATSTSS
binds: [8] | [9]
